The results in this text go back to US20190321455A1.

Amino acid sequences for entries named in this document (tags omitted).
UniProt Q15366: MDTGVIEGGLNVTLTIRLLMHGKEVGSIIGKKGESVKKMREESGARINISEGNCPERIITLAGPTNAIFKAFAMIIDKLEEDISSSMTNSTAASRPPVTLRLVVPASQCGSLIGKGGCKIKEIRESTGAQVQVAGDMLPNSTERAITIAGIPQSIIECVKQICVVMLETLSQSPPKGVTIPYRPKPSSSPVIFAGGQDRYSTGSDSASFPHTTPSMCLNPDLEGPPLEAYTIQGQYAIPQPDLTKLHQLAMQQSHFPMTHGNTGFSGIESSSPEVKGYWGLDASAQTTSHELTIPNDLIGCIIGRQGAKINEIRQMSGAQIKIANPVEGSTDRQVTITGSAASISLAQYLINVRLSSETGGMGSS

The target of the test is GST-PCBP2 (full-length poly(rC)-binding protein 2 expressed from a plasmid in 293T cells) (UniProt Q15366). In words: co-IP of EPRS domain constructs with PCBP2 in 293T cells.

No constants are given. Whether binding was seen depends on the method and setting. Binding seen in cells or lysates may run through a third protein. Some entries that bind do so weakly or less than the wild type. Sequences can lack the tags named with a protein.

B1: EPRS N-terminal domain (aa 1-196; GST-like domain and linker region L1), expressed in 293T cells (protein)
chain: MATLSLTVNSGDPPLGALLAVEHVKDDVSISVEEGKENILHVSENVIFTDVNSILRYLARVATTAGLYGSNLMEHTEIDHWLEFSATKLSSCDSFTSTINELNHCLSLRTYLVGNSLSLADLCVWATLKGNAAWQEQLKQKKAPVHVKRWFGFLEAQQAFQSVGTKWDVSTTKARVAPEKKQDVGKFVELPGAEMG
As to B1, the binding result is “binds”.
